The source of these data is article PMC5451130.

Amino acid sequences for entries named in this document (tags omitted). A change or cut given only in a name is not applied to a line headed by its entry. Residues count along the entry.
UniProt P06756: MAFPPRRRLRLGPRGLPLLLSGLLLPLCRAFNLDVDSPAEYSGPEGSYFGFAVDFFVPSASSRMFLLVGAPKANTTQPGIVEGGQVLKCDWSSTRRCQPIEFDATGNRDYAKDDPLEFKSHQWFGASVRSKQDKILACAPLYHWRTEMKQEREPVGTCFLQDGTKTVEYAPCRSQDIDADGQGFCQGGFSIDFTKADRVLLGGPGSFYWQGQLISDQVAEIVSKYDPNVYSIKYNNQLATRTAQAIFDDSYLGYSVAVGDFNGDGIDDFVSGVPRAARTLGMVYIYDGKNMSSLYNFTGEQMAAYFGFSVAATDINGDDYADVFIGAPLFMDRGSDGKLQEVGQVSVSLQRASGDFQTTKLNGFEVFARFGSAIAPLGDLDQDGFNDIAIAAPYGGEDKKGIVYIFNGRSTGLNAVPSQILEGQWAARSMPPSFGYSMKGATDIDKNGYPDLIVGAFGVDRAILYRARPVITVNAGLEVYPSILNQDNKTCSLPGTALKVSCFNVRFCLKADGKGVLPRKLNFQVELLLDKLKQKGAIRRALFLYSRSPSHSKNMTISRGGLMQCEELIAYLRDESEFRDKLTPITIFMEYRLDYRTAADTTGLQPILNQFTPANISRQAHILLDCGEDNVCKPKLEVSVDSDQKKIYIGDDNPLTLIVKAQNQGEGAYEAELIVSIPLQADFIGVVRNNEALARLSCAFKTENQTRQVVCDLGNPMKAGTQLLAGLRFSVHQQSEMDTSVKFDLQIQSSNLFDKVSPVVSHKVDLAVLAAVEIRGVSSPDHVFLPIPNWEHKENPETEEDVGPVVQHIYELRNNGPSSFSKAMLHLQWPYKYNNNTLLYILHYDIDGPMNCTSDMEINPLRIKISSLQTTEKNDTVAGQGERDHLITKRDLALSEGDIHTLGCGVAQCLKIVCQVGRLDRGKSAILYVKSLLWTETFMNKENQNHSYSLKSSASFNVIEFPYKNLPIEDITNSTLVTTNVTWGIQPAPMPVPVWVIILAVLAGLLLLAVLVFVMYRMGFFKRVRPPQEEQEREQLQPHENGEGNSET
UniProt P08648: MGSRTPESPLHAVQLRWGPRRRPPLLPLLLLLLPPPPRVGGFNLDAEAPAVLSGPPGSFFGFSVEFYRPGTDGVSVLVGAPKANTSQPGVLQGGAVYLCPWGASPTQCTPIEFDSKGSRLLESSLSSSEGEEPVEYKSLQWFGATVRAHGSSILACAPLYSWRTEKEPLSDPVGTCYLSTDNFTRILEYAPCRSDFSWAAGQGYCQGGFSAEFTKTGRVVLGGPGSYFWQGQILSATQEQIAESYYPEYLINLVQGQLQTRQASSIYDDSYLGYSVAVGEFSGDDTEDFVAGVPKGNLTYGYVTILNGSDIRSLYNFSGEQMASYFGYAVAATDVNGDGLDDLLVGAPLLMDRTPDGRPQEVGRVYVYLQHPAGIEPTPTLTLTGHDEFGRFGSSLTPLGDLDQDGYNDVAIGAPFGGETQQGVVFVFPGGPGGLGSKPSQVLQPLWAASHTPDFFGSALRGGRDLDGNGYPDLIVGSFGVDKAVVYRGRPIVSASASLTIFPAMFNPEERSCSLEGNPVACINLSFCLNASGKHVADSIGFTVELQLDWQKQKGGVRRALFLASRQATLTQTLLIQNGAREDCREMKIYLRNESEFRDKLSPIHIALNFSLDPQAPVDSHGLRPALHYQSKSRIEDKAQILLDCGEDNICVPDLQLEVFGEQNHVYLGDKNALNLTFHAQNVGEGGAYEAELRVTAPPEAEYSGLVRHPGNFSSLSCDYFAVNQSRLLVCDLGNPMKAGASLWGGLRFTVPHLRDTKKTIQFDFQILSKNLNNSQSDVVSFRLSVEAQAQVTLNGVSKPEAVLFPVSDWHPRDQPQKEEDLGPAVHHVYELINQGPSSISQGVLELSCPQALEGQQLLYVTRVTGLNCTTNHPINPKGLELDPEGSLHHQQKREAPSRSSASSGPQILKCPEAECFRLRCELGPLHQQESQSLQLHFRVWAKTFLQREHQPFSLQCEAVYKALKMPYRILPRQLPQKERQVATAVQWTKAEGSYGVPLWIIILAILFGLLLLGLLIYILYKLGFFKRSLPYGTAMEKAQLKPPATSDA
UniProt Q02763, residues 23-1124: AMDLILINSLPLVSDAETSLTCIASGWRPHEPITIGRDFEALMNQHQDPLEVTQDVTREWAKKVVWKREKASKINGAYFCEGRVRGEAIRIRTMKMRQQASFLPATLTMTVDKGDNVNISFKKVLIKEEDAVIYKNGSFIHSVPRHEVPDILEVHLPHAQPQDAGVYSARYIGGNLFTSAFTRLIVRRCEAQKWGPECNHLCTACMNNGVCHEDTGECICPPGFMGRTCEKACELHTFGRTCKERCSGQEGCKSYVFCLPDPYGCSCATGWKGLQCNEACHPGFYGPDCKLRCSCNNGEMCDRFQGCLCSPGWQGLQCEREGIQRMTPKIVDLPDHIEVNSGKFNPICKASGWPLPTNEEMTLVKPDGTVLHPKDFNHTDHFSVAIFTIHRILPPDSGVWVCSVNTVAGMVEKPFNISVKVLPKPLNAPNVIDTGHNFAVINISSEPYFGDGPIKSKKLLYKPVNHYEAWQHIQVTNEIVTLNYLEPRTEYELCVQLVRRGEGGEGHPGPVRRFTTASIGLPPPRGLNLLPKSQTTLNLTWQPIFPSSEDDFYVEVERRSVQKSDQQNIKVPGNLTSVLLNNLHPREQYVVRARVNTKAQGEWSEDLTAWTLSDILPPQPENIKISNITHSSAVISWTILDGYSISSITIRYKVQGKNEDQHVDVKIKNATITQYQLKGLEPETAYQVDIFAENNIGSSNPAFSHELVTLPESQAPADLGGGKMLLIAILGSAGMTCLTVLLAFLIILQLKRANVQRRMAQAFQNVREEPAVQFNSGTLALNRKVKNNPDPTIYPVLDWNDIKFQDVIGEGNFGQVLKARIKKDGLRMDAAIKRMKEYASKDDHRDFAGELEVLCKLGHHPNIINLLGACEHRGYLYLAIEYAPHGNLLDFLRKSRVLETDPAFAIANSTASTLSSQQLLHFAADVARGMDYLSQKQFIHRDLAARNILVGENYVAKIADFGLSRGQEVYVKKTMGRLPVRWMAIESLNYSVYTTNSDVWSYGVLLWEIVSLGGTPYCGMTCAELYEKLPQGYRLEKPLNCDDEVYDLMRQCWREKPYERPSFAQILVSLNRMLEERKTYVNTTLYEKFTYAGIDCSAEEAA
UniProt P35590, residues 22-1138: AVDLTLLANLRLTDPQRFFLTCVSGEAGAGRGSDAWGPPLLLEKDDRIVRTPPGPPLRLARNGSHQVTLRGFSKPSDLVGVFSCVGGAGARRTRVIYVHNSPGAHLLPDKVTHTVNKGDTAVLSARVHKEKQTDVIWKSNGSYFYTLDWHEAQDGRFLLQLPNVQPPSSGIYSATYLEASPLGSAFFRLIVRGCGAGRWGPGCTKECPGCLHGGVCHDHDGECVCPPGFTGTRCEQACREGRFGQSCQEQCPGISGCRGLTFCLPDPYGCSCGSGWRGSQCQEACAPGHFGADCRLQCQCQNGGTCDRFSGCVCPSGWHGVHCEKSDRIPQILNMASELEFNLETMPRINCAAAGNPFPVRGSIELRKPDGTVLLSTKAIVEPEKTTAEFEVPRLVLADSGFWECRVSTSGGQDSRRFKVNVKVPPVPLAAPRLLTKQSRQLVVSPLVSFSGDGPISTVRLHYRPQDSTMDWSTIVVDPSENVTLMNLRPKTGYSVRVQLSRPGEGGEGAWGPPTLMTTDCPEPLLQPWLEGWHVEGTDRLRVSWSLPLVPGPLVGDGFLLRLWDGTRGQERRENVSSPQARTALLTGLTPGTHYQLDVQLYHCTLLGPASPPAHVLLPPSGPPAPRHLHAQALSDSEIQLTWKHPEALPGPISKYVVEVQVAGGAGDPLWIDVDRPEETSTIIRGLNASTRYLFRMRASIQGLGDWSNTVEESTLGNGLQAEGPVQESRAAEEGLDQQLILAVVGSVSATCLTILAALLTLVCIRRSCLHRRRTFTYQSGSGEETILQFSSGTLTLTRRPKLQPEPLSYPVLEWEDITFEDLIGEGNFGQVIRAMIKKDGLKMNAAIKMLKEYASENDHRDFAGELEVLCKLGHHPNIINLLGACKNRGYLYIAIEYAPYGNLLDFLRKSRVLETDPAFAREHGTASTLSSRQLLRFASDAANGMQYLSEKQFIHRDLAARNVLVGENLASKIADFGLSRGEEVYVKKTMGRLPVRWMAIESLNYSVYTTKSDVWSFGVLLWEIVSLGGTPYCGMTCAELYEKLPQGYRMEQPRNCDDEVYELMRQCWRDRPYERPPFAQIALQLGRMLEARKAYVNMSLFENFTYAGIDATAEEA

Test [1] deals with Full-length integrin αVß3 (flag-tagged) (UniProt P06756). Briefly: co-IP; transiently transfected HEK293 cells; integrins immunoprecipitated with anti-flag antibody; co-precipitating Tie receptors detected by western blot (anti-HA, anti-myc or anti-GFP). On the technique in general: In western blotting, separated proteins are transferred to a membrane and probed.
Test [2] concerns the target Full-length integrin α5ß1 (flag-tagged) (UniProt P08648). The test is described as above.

Results are given in words; binding and its absence hold for the method and conditions named. Binding seen in cells or lysates may run through a third protein. Some results given as binding are weak or reduced against the parent protein; the word gives no strength.

Take “myc-tagged Tie2 receptor (from UniProt Q02763 23-1124)”: the binding result in test [1] was “binds”. As for “HA-tagged Tie1 receptor (from UniProt P35590 22-1138)”, the binding entry in test [2] and in test [1] was “binds” in each case.
